Reference: publication PMC10154356
These are yes or no findings as the source states them, for the method shown. For some assays here: In cells and extracts the contact can be indirect. Some entries that bind do so weakly or less than the wild type.

Sequences of proteins named here, by UniProt entry; tags and fusion partners are left off.
UniProt Q13887: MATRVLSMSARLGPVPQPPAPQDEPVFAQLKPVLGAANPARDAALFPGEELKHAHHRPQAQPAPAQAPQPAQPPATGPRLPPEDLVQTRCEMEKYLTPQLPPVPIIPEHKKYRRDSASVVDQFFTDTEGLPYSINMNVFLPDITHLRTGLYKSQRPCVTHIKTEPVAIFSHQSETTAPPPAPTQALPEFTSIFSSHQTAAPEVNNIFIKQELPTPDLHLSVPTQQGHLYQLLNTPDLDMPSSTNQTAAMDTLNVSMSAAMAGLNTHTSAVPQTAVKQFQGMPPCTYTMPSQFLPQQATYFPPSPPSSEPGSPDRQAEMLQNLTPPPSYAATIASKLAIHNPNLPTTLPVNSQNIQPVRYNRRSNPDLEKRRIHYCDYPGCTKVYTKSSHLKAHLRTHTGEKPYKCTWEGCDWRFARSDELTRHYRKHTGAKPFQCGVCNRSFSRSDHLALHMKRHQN
UniProt Q92769: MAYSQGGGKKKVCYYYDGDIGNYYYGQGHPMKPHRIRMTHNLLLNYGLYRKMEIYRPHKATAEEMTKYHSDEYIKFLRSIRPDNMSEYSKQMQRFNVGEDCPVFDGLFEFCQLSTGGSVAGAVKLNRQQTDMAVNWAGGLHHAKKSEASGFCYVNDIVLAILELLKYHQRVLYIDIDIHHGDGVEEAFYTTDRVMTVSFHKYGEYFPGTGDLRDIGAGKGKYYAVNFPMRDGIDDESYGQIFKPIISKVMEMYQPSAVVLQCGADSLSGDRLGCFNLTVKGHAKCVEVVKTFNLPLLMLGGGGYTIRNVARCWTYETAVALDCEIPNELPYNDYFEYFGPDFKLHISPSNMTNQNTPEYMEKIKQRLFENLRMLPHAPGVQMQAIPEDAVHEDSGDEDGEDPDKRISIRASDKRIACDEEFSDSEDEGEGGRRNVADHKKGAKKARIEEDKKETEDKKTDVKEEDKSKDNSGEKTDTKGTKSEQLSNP

How the values were obtained:
[1] = biological target: KLF5 (human (endogenous in primary human esophageal keratinocytes)) (UniProt Q13887); experiment: ChIP-reChIP; formaldehyde cross-linked cells; first ChIP with anti-KLF5, second ChIP with anti-SIN3A or anti-HDAC2; on the TP53 promoter
[2] = biological target: KLF5 (human (endogenous in primary human esophageal keratinocytes)) (UniProt Q13887); experiment: co-IP; lysates of EPC2 primary human esophageal keratinocytes (1% NP-40, 137 mM NaCl lysis buffer), 4 ug antibody overnight at 4 C, protein A/G magnetic beads, immunoblot; IgG as negative control; with and without KLF5 knock-down, SIN3A knock-down or UV irradiation

## HDAC2 (from UniProt Q92769 1-488)
[1]
  binding: binds
[2]
  binding: binds
